# The supplement of paper PMC8728848
# Some of the results follow.
# Columns and labels:
# Experiment in all cases: glycan array binding signal (z-score within array); higher = stronger binding
# Conditions in all cases: glycan notation: IUPAC condensed, linker removed
# [1] = target: Gal(b1-3)GlcNAc(b1-3)Gal(b1-4)GlcNAc(b1-2)[Gal(b1-3)GlcNAc(b1-3)Gal(b1-4)GlcNAc(b1-6)]Man(a1-6)[Gal(b1-3)GlcNAc(b1-3)Gal(b1-4)GlcNAc(b1-2)Man(a1-3)]Man(b1-4)GlcNAc(b1-4)[Fuc(a1-6)]GlcNAc
# Summary of the method: (§1)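 Glycan array binding is given as a within-array Z-score, which can be read as non-binding when negative. The arrays, 3228 of them, came from the Consortium for Functional Glycomics database and were retained only where the protein sequence was available. Z-scores were averaged across arrays of the same protein sequence at different concentrations or buffers and across linkers.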
# [2] = target: Gal(b1-3)GlcNAc(b1-3)Gal(b1-4)GlcNAc(b1-3)Gal(b1-4)GlcNAc(b1-2)[Gal(b1-3)GlcNAc(b1-3)Gal(b1-4)GlcNAc(b1-3)Gal(b1-4)GlcNAc(b1-6)]Man(a1-6)[Gal(b1-3)GlcNAc(b1-3)Gal(b1-4)GlcNAc(b1-3)Gal(b1-4)GlcNAc(b1-2)Man(a1-3)]Man(b1-4)GlcNAc(b1-4)[Fuc(a1-6)]GlcNAc
# Summary of the method: as §1
# [3] = target: Gal(b1-3)GlcNAc(b1-3)Gal(b1-4)GlcNAc(b1-6)[Gal(b1-3)GlcNAc(b1-3)]Gal(b1-4)Glc
# Summary of the method: as §1
# [4] = target: Gal(b1-3)GlcNAc(b1-3)Gal(b1-4)[Fuc(a1-3)]GlcNAc
# Summary of the method: as §1
# [5] = target: Gal(b1-3)GlcNAc(b1-3)Gal(b1-4)[Fuc(a1-3)]GlcNAc(b1-6)[Gal(b1-3)GlcNAc(b1-3)]Gal(b1-4)Glc
# Summary of the method: as §1
# [6] = target: Gal(b1-3)GlcNAc(b1-3)GalNAc
# Summary of the method: as §1
# [7] = target: Gal(b1-3)GlcNAc(b1-6)Gal(b1-4)GlcNAc
# Summary of the method: as §1
# [8] = target: Gal(b1-3)GlcNAc(b1-6)GalNAc
# Summary of the method: as §1
# [9] = target: Gal(b1-3)GlcNAc(b1-6)[Gal(b1-3)]GalNAc
# Summary of the method: as §1
# Gal(b1-3)GlcNAc6S = target: Gal(b1-3)GlcNAc6S
# Summary of the method: as §1
# [10] = target: Gal(b1-3)[Fuc(a1-4)]GlcNAc
# Summary of the method: as §1
# [11] = target: Gal(b1-3)[Fuc(a1-4)]GlcNAc(b1-2)Man
# Summary of the method: as §1
# [12] = target: Gal(b1-3)[Fuc(a1-4)]GlcNAc(b1-2)Man(a1-3)[Gal(b1-3)[Fuc(a1-4)]GlcNAc(b1-2)Man(a1-6)]Man(b1-4)GlcNAc(b1-4)[Fuc(a1-6)]GlcNAc
# Summary of the method: as §1
# [13] = target: Gal(b1-3)[Fuc(a1-4)]GlcNAc(b1-3)Gal(b1-3)[Fuc(a1-4)]GlcNAc
# Summary of the method: as §1
# [14] = target: Gal(b1-3)[Fuc(a1-4)]GlcNAc(b1-3)Gal(b1-4)[Fuc(a1-3)]GlcNAc
# Summary of the method: as §1
# [15] = target: Gal(b1-3)[Fuc(a1-4)]GlcNAc(b1-6)GalNAc
# Summary of the method: as §1
# [16] = target: Gal(b1-3)[GlcNAc(b1-6)]GalNAc
# Summary of the method: as §1
# [17] = target: Gal(b1-3)[Neu5Ac(a2-6)]GalNAc
# Summary of the method: as §1
# [18] = target: Gal(b1-3)[Neu5Ac(a2-6)]GlcNAc(b1-4)Gal(b1-4)Glc
# Summary of the method: as §1
# [19] = target: Gal(b1-3)[Neu5Ac(b2-6)]GalNAc
# Summary of the method: as §1
# Gal(b1-4)Gal = target: Gal(b1-4)Gal
# Summary of the method: as §1
# [20] = target: Gal(b1-4)GalNAc(a1-3)[Fuc(a1-2)]Gal(b1-4)GlcNAc
# Summary of the method: as §1
# [21] = target: Gal(b1-4)GalNAc(b1-3)[Fuc(a1-2)]Gal(b1-4)GlcNAc
# Summary of the method: as §1
# Gal(b1-4)Glc = target: Gal(b1-4)Glc
# Summary of the method: as §1
# Gal(b1-4)Glc6S = target: Gal(b1-4)Glc6S
# Summary of the method: as §1
# Gal(b1-4)GlcNAc = target: Gal(b1-4)GlcNAc
# Summary of the method: as §1
# [22] = target: Gal(b1-4)GlcNAc(a1-6)Gal(b1-4)GlcNAc
# Summary of the method: as §1
# Gal(b1-4)GlcNAc(b1-2)Man = target: Gal(b1-4)GlcNAc(b1-2)Man
# Summary of the method: as §1
# [23] = target: Gal(b1-4)GlcNAc(b1-2)Man(a1-3)Man(b1-4)GlcNAc(b1-4)GlcNAc
# Summary of the method: as §1
# [24] = target: Gal(b1-4)GlcNAc(b1-2)Man(a1-3)[Gal(b1-4)GlcNAc(b1-2)Man(a1-6)]Man(b1-4)GlcNAc(b1-4)GlcNAc
# Summary of the method: as §1
# [25] = target: Gal(b1-4)GlcNAc(b1-2)Man(a1-3)[Gal(b1-4)GlcNAc(b1-2)Man(a1-6)]Man(b1-4)GlcNAc(b1-4)[Fuc(a1-6)]GlcNAc
# Summary of the method: as §1
# [26] = target: Gal(b1-4)GlcNAc(b1-2)Man(a1-3)[Gal(b1-4)GlcNAc(b1-2)Man(a1-6)][Gal(b1-4)GlcNAc(b1-4)]Man(b1-4)GlcNAc(b1-4)[Fuc(a1-6)]GlcNAc
# Summary of the method: as §1
# [27] = target: Gal(b1-4)GlcNAc(b1-2)Man(a1-3)[Gal(b1-4)GlcNAc(b1-2)Man(a1-6)][GlcNAc(b1-4)]Man(b1-4)GlcNAc(b1-4)[Fuc(a1-6)]GlcNAc
# Summary of the method: as §1
# [28] = target: Gal(b1-4)GlcNAc(b1-2)Man(a1-3)[GlcNAc(b1-2)Man(a1-6)]Man(b1-4)GlcNAc(b1-4)GlcNAc
# Summary of the method: as §1
# [29] = target: Gal(b1-4)GlcNAc(b1-2)Man(a1-3)[GlcNAc(b1-4)][Gal(b1-4)GlcNAc(b1-2)Man(a1-6)]Man(b1-4)GlcNAc(b1-4)GlcNAc
# Summary of the method: as §1
# [30] = target: Gal(b1-4)GlcNAc(b1-2)Man(a1-3)[Man(a1-6)]Man(b1-4)GlcNAc(b1-4)GlcNAc
# Summary of the method: as §1
# [31] = target: Gal(b1-4)GlcNAc(b1-2)Man(a1-6)Man(b1-4)GlcNAc(b1-4)GlcNAc
# Summary of the method: as §1
# [32] = target: Gal(b1-4)GlcNAc(b1-2)Man(a1-6)[GlcNAc(b1-2)Man(a1-3)]Man(b1-4)GlcNAc(b1-4)GlcNAc
# Summary of the method: as §1
binder,measurement,setting,value
RobpsCRA (Robinia pseudoacacia) (protein) IKGGYWYSGSGLAVSDINPSHFTHLFCAFADLDPNTNKLTISSSNAAAFSTFTQTVRAKNPSVKTLLSIGGGGGRALAAVFANMASQASRRKSFIDSSIQLARRNNFHGLDLDWEYPSSDIDKTNFASLIREWRAAVATESSTSGTPALLLSAAVGGSDQITPLKYYPGEAIANNLDWVNVMTYDLYTSDSYPTLTQPPAPLFYPRGIFSADEGITKWIQSGVPESKLALGLPFYGFKWRLSDPNNHGLFAPATQGLGAVKYKDIVNTGGQVEFDSTYVTNYCFKGTDWYGYDDTQSISAKVAYAKQRGLFGYFAWHIEQDSNWALS,glycan array binding signal (z-score),[1],1.19
same,glycan array binding signal (z-score),[2],0.989
same,glycan array binding signal (z-score),[3],-0.444
same,glycan array binding signal (z-score),[4],0.058
same,glycan array binding signal (z-score),[5],0.137
same,glycan array binding signal (z-score),[6],-0.893
same,glycan array binding signal (z-score),[7],0.201
same,glycan array binding signal (z-score),[8],-0.441
same,glycan array binding signal (z-score),[9],-0.385
same,glycan array binding signal (z-score),Gal(b1-3)GlcNAc6S,-0.051
same,glycan array binding signal (z-score),[10],-0.158
same,glycan array binding signal (z-score),[11],-0.286
same,glycan array binding signal (z-score),[12],-0.176
same,glycan array binding signal (z-score),[13],-0.405
same,glycan array binding signal (z-score),[14],-0.719
same,glycan array binding signal (z-score),[15],0.542
same,glycan array binding signal (z-score),[16],-0.77
same,glycan array binding signal (z-score),[17],0.054
same,glycan array binding signal (z-score),[18],-0.255
same,glycan array binding signal (z-score),[19],0.375
same,glycan array binding signal (z-score),Gal(b1-4)Gal,-0.47
same,glycan array binding signal (z-score),[20],-0.048
same,glycan array binding signal (z-score),[21],-0.51
same,glycan array binding signal (z-score),Gal(b1-4)Glc,-0.271
same,glycan array binding signal (z-score),Gal(b1-4)Glc6S,0.053
same,glycan array binding signal (z-score),Gal(b1-4)GlcNAc,-0.616
same,glycan array binding signal (z-score),[22],-0.885
same,glycan array binding signal (z-score),Gal(b1-4)GlcNAc(b1-2)Man,0.089
same,glycan array binding signal (z-score),[23],-0.532
same,glycan array binding signal (z-score),[24],-0.393
same,glycan array binding signal (z-score),[25],0.387
same,glycan array binding signal (z-score),[26],-0.956
same,glycan array binding signal (z-score),[27],0.589
same,glycan array binding signal (z-score),[28],-0.923
same,glycan array binding signal (z-score),[29],-0.771
same,glycan array binding signal (z-score),[30],-0.195
same,glycan array binding signal (z-score),[31],-0.656
same,glycan array binding signal (z-score),[32],0.209

# Reprinted from above for reference:
binder,measurement,setting,value
RobpsCRA (Robinia pseudoacacia) (protein) IKGGYWYSGSGLAVSDINPSHFTHLFCAFADLDPNTNKLTISSSNAAAFSTFTQTVRAKNPSVKTLLSIGGGGGRALAAVFANMASQASRRKSFIDSSIQLARRNNFHGLDLDWEYPSSDIDKTNFASLIREWRAAVATESSTSGTPALLLSAAVGGSDQITPLKYYPGEAIANNLDWVNVMTYDLYTSDSYPTLTQPPAPLFYPRGIFSADEGITKWIQSGVPESKLALGLPFYGFKWRLSDPNNHGLFAPATQGLGAVKYKDIVNTGGQVEFDSTYVTNYCFKGTDWYGYDDTQSISAKVAYAKQRGLFGYFAWHIEQDSNWALS,glycan array binding signal (z-score),[2],0.989
same,glycan array binding signal (z-score),[3],-0.444
same,glycan array binding signal (z-score),[4],0.058
same,glycan array binding signal (z-score),[5],0.137
same,glycan array binding signal (z-score),[6],-0.893
same,glycan array binding signal (z-score),[7],0.201
same,glycan array binding signal (z-score),[8],-0.441
